Measurements published in patent publication US20040014638A1 (RIGEL PHARMACEUTICALS, published 2004).
Results are given in words; binding and its absence hold for the method and conditions named. Some entries that bind do so weakly or less than the wild type.

T1: human CLLD8 protein (human, UniProt Q96T68 1-719, limits assumed)
T1 sequence: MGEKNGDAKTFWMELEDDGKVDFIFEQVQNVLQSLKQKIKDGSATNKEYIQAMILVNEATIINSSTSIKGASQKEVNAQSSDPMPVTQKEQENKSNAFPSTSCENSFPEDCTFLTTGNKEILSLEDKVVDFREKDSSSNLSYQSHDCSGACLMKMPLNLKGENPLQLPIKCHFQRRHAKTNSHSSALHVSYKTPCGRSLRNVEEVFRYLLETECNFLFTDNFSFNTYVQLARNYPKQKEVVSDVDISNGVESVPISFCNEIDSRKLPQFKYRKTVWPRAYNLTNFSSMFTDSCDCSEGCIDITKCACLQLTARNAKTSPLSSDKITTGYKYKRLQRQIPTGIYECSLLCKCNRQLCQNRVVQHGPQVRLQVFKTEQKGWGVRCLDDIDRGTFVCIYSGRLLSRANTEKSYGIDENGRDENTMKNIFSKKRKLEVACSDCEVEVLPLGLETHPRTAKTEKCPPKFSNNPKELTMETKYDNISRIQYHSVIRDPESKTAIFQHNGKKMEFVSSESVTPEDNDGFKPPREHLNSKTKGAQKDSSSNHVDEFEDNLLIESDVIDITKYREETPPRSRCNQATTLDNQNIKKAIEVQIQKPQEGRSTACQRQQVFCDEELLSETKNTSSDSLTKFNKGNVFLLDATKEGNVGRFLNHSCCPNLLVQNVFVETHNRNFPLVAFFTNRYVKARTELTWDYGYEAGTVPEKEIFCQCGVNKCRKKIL


Experiments:
human CLLD8 protein [1] = target: T1, human CLLD8 protein; test: yeast two-hybrid
human CLLD8 protein [2] = target: T1, human CLLD8 protein; test: yeast two-hybrid interaction profile compared with the functional profile
human CLLD8 protein [3] = target: T1, human CLLD8 protein; test: yeast two-hybrid interaction profiling

| binding (human CLLD8 protein [1]) | binding (human CLLD8 protein [2]) | binding (human CLLD8 protein [3]) | Binder |
| --- | --- | --- | --- |
| binds | – | – | AMHGHHAAPWGMEQGCTPLG [peptide CL02A3GW] |
| binds | – | – | AMHGHHGWPWGMEQGCTPAA [peptide CL02A3LG] |
| binds | binds | binds | AMHGHHGWPWGMEQGCTPLG [peptide CL02A3 wt] |
